In patent EP0108147B1, “Use of a protoberberine alkaloid and composition containing same” (MAROKO, Peter R., priority 1982, dated 1983):
At least one compound was matched to its structure with a doubt left.

Tested on: closed-chest anesthetized dogs
Settings: dog, in vivo
Protocol: A study was carried out to examine the effects of the simultaneous administration of berberine on digitalis (i.e. ouabain) produced arrhythmias.
The experiments were conducted in closed-chest anesthetized dogs which were randomized to three groups. All received ouabain 0.03 mg/Kg as a bolus intravenously and thereafter a continuous infusion with a constant rate of 0.0006 mg/Kg/min until death. […] The second group received simultaneously berberine 1 mg/Kg intravenously as a bolus and then 0.2 mg/Kg/min as a continous infusion. The third group received berberine only after the appearance of VEA in a frequency of 50% of more of all systoles.
Moreover, the effects of intravenous bolus injection of berberine (0.4 to 1 mg/Kg) was studied (in comparison to dextrose 5% injection).

COc1cc2c(cc1OC)[C@@H]1Cc3ccc(OC)c(OC)c3CN1CC2 [tetrahydropalmatine]
antiarrhythmic and antiarrhythmogenic result in the ouabain experiment: satisfactory results
